Laboratory results from the supplement of paper PMC4683952.
The list shows a part of the results. No stated cut-off is given here; in the data, active = 2 or more and inactive = the rest. Single values are uncertain here, since repeats match poorly.

Test system: Lgr5 (MarsCy1-Lgr5-EGFP, U2OS)
Test: cell-surface Lgr5 expression (SCi1 fluorescence, background-subtracted) relative to WT DMSO (fold of DMSO control); higher = more Lgr5 at the plasma membrane
Conditions: U2OS MarsCy1-Lgr5-EGFP stable; treatment time: overnight; library: ActiProbe-5K (TimTec); 25 µM

Row | SMILES | cell-surface Lgr5 expression
1 | NCC1CCCN(CCO)C1 (centres undefined) | inactive: 1.09
2 | Fc1ccc(C#Cc2ccc(C#Cc3ccc(F)cc3)cc2)cc1 | inactive: 1.43
3 | O=C(Nc1sc2c(c1C(=O)N1CCOCC1)CCC2)c1ccco1 | inactive: 0.966
4 | Cc1cc(C)c(S(N)(=O)=O)c(C)c1-n1cnnn1 | inactive: 1.15
5 | Cn1c(=S)n(CCSc2nc3ccccc3n2C2CCCCC2)c2ccccc21 | inactive: 1.29
6 | COc1ccc(/C=N\NC(=S)S)cc1OC | inactive: 1.05
7 | Cc1sc(C(C2C(=O)CC(C)(C)CC2=O)C2C(=O)CC(C)(C)CC2=O)cc1Br | inactive: 1.54
8 | Nc1nc(N)c2nc[nH]c2n1 | inactive: 1.67
9 | O=c1oc(-c2ccccn2)nc2ccccc12 | inactive: 1.11
10 | CCOC(=O)c1cnc(SC)nc1C | inactive: 1.11
11 | Clc1ccc(C2=CC(c3ccccc3)n3ncnc3N2)cc1 (centres undefined) | inactive: 0.971
12 | N#CCSc1nc2c(c(C3CC=CCC3)c1C#N)CCC2 (centres undefined) | inactive: 1.31
13 | c1ccc(-c2nc(-c3ccccn3)nc(-c3ccccn3)n2)nc1 | inactive: 1.01
14 | Clc1ncnc2nc3n(c12)CCC3 | inactive: 1.11
15 | CC12CN3CCN(CC(C3)/C1=N/N=C\c1ccc3c(c1)OCO3)C2 | inactive: 1.41
16 | CC(C)CCC1(CCC(=O)O)CCOC1=O (centres undefined) | inactive: 1.25
17 | C(=N/N1CCN(C2c3ccccc3-c3ccccc32)CC1)/c1ccncc1 | inactive: 0.908
18 | Nc1ncnc2[nH]c(Br)nc12 | inactive: 1.16
19 | N#Cc1c(NC(=O)/C=C\C(=O)O)sc2c1CCC2 | inactive: 1.51
20 | c1ccc(CN2COc3ccc4ccccc4c3C2)cc1 | inactive: 1.4
21 | Cc1nnc(SCC(=O)OC2CC(C)CCC2C(C)C)[nH]c1=O (centres undefined) | inactive: 1.13
22 | CCOC(=O)c1cc(CSCC(O)C(O)CSCc2cc(C(=O)OCC)oc2C)c(C)o1 (centres undefined) | inactive: 0.927

Six successive compounds from above:
Row | SMILES | cell-surface Lgr5 expression
4 | Cc1cc(C)c(S(N)(=O)=O)c(C)c1-n1cnnn1 | inactive: 1.15
5 | Cn1c(=S)n(CCSc2nc3ccccc3n2C2CCCCC2)c2ccccc21 | inactive: 1.29
6 | COc1ccc(/C=N\NC(=S)S)cc1OC | inactive: 1.05
7 | Cc1sc(C(C2C(=O)CC(C)(C)CC2=O)C2C(=O)CC(C)(C)CC2=O)cc1Br | inactive: 1.54
8 | Nc1nc(N)c2nc[nH]c2n1 | inactive: 1.67
9 | O=c1oc(-c2ccccn2)nc2ccccc12 | inactive: 1.11

Next structures follow.

Row | SMILES | cell-surface Lgr5 expression
23 | CCc1nc2c(o1)NC(N)=C(C#N)C21CCN(C)CC1 | inactive: 1.14
24 | O=C1OCc2cc(-n3cnnn3)ccc21 | inactive: 0.861
25 | C=CCN1C(=O)/C(=C2\SC(N3CC(C)OC(C)C3)=NC2=O)c2cc(Br)ccc21 (centres undefined) | active: 2.59
26 | O=C1Nc2ccc(Br)cc2/C1=N\N=C/c1c[nH]c2ccccc12 | inactive: 0.668
27 | O=C(O)/C=C\C(=O)NC1CCCCC1 | inactive: 1.52
28 | CC1(C)OCC(C2OC(O)C3OC(C)(C)OC32)O1 (centres undefined) | inactive: 1.16
29 | Clc1ncnc2sc3c(c12)CCCCC3 | inactive: 1.15
30 | O=C(O)CCC(=O)OC1CC2CCC1C2 (centres undefined) | inactive: 1.06
31 | Cn1ncc(Cl)c1C(=O)O | inactive: 1.18
32 | COC(=O)CCCC[C@H]1SC[C@@H](NC(N)=O)[C@H]1NC(N)=O | inactive: 1.04
33 | C#CCSc1nncn1C(=O)/C=C\c1ccco1 | inactive: 1.3
34 | N#C/C(=C\c1ccccc1/C=C(/C#N)c1ccc2c(c1)OCO2)c1ccc2c(c1)OCO2 | inactive: 1.12
35 | O=C(O)C1CCCN1C(=O)/C=C\c1ccco1 (centres undefined) | inactive: 1.25
36 | Cc1nnc([nH]c1=O)N\N=C(\C(=O)O)C(=O)O | inactive: 1.57
37 | NNc1c(F)c(F)cc(F)c1F | inactive: 1.23
38 | [O-][n+]1onc2c3c4c([nH]c3ccc21)CCCC4 | inactive: 0.985
39 | O=S(=O)(c1ccc2c(c1)OCCO2)N1CCCCCC1 | inactive: 1.1
40 | c1csc(-c2nnc(C3CCCCC3)o2)c1 | inactive: 0.976
41 | O=C1CN2C(=C1c1nc3ccccc3c(=O)[nH]1)NC(=O)c1ccccc12 | inactive: 1.1
42 | FC(F)(F)c1ccc(/C=N/n2cnnc2)cc1 | inactive: 1.01
43 | c1cc2c3c(cccc3c1)NC1(CCCCCC1)N2 | inactive: 1.09
44 | O=[N+]([O-])c1cc(Cl)ccc1-n1ccnc1 | inactive: 1.08

Row | SMILES | cell-surface Lgr5 expression
45 | COc1cc(C2CC(C)(OC)Oc3cc4c(cc32)OCO4)cc(OC)c1OC (centres undefined) | inactive: 1
46 | O=c1[nH]cnc2c1nc(N1CCNCC1)n2C1OC(CO)C(O)C1O (centres undefined) | inactive: 0.968
47 | N#Cc1ccc(-c2ccncc2)nc1SCc1ccncc1 | inactive: 1.13
48 | Clc1cccc(Cl)c1-c1noc(CSc2nc3ccccc3s2)n1 | inactive: 1.07
49 | CC12CC3CC(C)(C1)CC(NC(=O)C1=NNC(=O)CC1)(C3)C2 | inactive: 1.47
50 | CC1CCN(c2nc(N3CCCCC3)nc(N3CCCCC3)n2)CC1 | inactive: 1.23
51 | COc1ccc2c(c1)CCc1sc(N)nc1-2 | inactive: 1.31
52 | Cc1ccc(/C=N\n2c(S)nnc2C2CCCCC2)o1 | inactive: 1.14
53 | N=C([NH3+])NC(=N)Nc1cccc(C(F)(F)F)c1.[Cl-] | inactive: 1.2
54 | Nc1nc(-c2ccccc2)cc(=S)s1 | inactive: 0.925
55 | Cn1cc(C(=O)N2N=CCC2(O)C(F)(F)F)cn1 (centres undefined) | inactive: 1.12
56 | OC(CNCCOc1ccccc1)Cn1c2ccccc2c2ccccc21 (centres undefined) | inactive: 1.43
57 | C1(=C(/C(=O)C)C(=O)C)/OC(=O)c2c1cccc2 | inactive: 1.22
58 | C1(=C([C@]([C@@H]([C@@H]2(C1=CCN(C2)C))c1cocc1)(C#N)C#N)N)C#N | inactive: 1.2
59 | Oc1ccc2cc(SSc3ccc4cc(O)ccc4c3)ccc2c1 | inactive: 0.961
60 | O=[N+]([O-])c1cc(/C=N\c2cc(Cl)cc(Cl)c2)ccc1Cl | inactive: 1.59
61 | c1ccc(-c2cc(-c3nnc(-c4ccncc4)o3)c3ccccc3n2)cc1 | active: 2.92
62 | NC(=O)c1nc(Cl)c(N)nc1N | inactive: 1.22
63 | Cc1[nH]c(=O)[nH]c(=O)c1CSCC(=O)O | inactive: 1.28
64 | N#CC1=C(N)Oc2ncnc(O)c2C1c1cccs1 (centres undefined) | inactive: 1.22
65 | Nc1nonc1/C(=N/O)n1cc(-c2ccccc2)nn1 | inactive: 1.06
66 | O=c1[nH]c(=O)c2ncn(C3OC(CO)C(O)C3O)c2[nH]1 (centres undefined) | inactive: 1.04

Row | SMILES | cell-surface Lgr5 expression
67 | Cc1cc(C)n(C)c(=O)c1C(=O)NCC1CCCO1 (centres undefined) | inactive: 1.09
68 | Cn1cccc1/C=N/NC(=O)Cn1cnc2c1c(=O)n(C)c(=O)n2C | inactive: 1.22
69 | COc1ccc(Br)cc1-c1noc(C(F)(F)F)n1 | inactive: 1.11
70 | CCN1CCC2(CC1)C(C#N)=C(N)Oc1[nH]nc(C)c12 | inactive: 1.12
71 | Cc1cc2n(n1)C(C(F)(F)F)CC(C1CC1)N2 (centres undefined) | inactive: 1.34
72 | CCCCc1[nH]nc2c1C1(CCCCC1)C(C#N)=C(N)O2 | inactive: 0.935
73 | CCCCCCCCCn1c(=O)c2c(ncn2C)n(C)c1=O | inactive: 1.31
74 | c1ccc2c(c1)OC1(CCCCC1)O2 | inactive: 1.24
75 | O=S(=O)(Cc1ccccc1)NC1CCCC1 | inactive: 1.08
76 | C=C(C)CC1NC2CC(C)(C)C1c1c(Br)cccc12.Cl (centres undefined) | inactive: 1.34
77 | Cn1c(N)nc2ccccc21 | inactive: 1.22
78 | O=[N+]([O-])c1cc2c(c([N+](=O)[O-])c1)C=Cc1cc(Cl)ccc1O2 | inactive: 0.908
79 | O=c1[nH]cc(C(F)(F)F)c(=O)[nH]1 | inactive: 1.19
80 | Oc1ccc(/C=N/Nc2nccnc2Cl)c(O)c1 | inactive: 0.306
81 | O=c1ccn(-c2ccccc2)[nH]1 | inactive: 1.04
82 | O=S(=O)(Nc1nc2ccccc2nc1N1CCOCC1)c1ccccc1 | inactive: 1.41
83 | CC(C)N1C[C@@H](C)C(=O)C[C@@H]1C | inactive: 1.45
84 | CC(C)(C)S(=O)(=O)c1cccc(S(=O)(=O)C(C)(C)C)c1 | inactive: 0.918
85 | CN(C)c1ccc([N+](=O)[O-])cc1Cl | inactive: 1.1
86 | c1ccc(-n2cnc3cnccc32)cc1 | inactive: 1.1
87 | O=C(NCCCCNC(=O)c1cnccn1)c1cnccn1 | inactive: 1.19
88 | Clc1cc2c(cc1CO/N=C1/CCCc3nonc31)OCO2 | inactive: 0.968

Row | SMILES | cell-surface Lgr5 expression
89 | Nc1nonc1NC(=O)CCC(=O)O | inactive: 1.12
90 | Oc1ncnc2c1sc(=S)n2Cc1ccccc1 | inactive: 1.38
91 | Oc1ccc(Cl)cc1Sc1cc(Cl)ccc1O | inactive: 0.891
92 | Sc1nnc(-c2ccco2)n1/N=C/C=C\c1ccco1 | inactive: 1.23
93 | FC(F)(F)c1ccnc(=S)[nH]1 | inactive: 1.15
94 | COC(=O)/C(C#N)=C\c1cccn1C | inactive: 1.13
95 | c1ccc(-c2nnc(-c3ccccn3)o2)nc1 | inactive: 1.19
96 | N#CC1=C(N)Oc2ncnc(O)c2C1c1ccoc1 (centres undefined) | inactive: 1.31
97 | CC(C)c1nnc(NC(=O)CC(C)(C)C)s1 | inactive: 1.38
98 | O=C(NCC12CC3CC(CC(C3)C1)C2)c1cnccn1 | inactive: 1.19
99 | Oc1ncnc2nn(-c3ccccc3)nc12 | inactive: 1.33
100 | O=C1OCCO/C1=C/c1ccc([N+](=O)[O-])o1 | inactive: 0.825
101 | CCSc1nnc(C(F)F)n1NS(=O)(=O)c1cc(C)ccc1C | inactive: 0.902
102 | CCOC(=O)C1=C(C)NC(Nc2nccs2)(C(F)(F)F)C1=O (centres undefined) | inactive: 1.33
103 | O=C1OCc2cc(NS(=O)(=O)c3ccc(Br)s3)ccc21 | inactive: 1.28
104 | N#Cc1cc2c([nH]c1=S)CCC2 | inactive: 1.22
105 | n1(c2c(non2)N)c(c(C(N\N=C2\CCCCCC2)=O)nn1)C | inactive: 1.23
106 | O=C/C(=C/O)c1cnc2ccccc2n1 | inactive: 1.25
107 | C=CCN(CC=C)Cn1nc(O)ccc1=O | inactive: 1.06
108 | Cc1sc2nc[nH]c(=O)c2c1C | active: 2.29
109 | NC(=O)CSc1nnnn1C1CCCCC1 | inactive: 1.2

Single entries from the entries so far:
Value of n1(c2c(non2)N)c(c(C(N\N=C2\CCCCCC2)=O)nn1)C under cell-surface Lgr5 expression: inactive: 1.23
Value of Nc1nonc1NC(=O)CCC(=O)O under cell-surface Lgr5 expression: inactive: 1.12
